Out of some 390,000 compounds screened, about 910 (0.23%) were called active. This list was built around the results that the source calls inconclusive (neither active nor inactive); the mix of calls is not that of the screen. The call rests on the fitted dose curve; in most records, active means well fitted inhibition curve with a large enough effect; inconclusive means small, poorly fitted or top-dose-only effect; inactive means no such curve, though single readings can be large or run the other way. Potencies beside an inconclusive call are fits to weak or partial responses and may not hold up.
molecular target: Ubiquitin carboxyl-terminal hydrolase 1 (Homo sapiens) (UniProt O94782); assay: Inhibitors of USP1/UAF1: Primary Screen; conditions: recombinant USP1/UAF1, Ub-Rhodamine cleavage fluorescence; series mostly up to 57.1 µM; further: nearly all actives have a fitted effect of over 60% in size
How it was run: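 USP1/UAF1 complex at 1 nM was preincubated with compound for 15 min at room temperature, then Ub-Rho substrate (150nM final) was added. Fluorescence (480/540 nm) was read kinetically, 6 reads every 60 seconds.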
Potency means the concentration at half of the fitted maximal effect.

Chains of the proteins cited; added tags and fusions are not shown. Lines headed by an entry give the natural chain unless they say otherwise; changes in a name come on top.
UniProt O94782: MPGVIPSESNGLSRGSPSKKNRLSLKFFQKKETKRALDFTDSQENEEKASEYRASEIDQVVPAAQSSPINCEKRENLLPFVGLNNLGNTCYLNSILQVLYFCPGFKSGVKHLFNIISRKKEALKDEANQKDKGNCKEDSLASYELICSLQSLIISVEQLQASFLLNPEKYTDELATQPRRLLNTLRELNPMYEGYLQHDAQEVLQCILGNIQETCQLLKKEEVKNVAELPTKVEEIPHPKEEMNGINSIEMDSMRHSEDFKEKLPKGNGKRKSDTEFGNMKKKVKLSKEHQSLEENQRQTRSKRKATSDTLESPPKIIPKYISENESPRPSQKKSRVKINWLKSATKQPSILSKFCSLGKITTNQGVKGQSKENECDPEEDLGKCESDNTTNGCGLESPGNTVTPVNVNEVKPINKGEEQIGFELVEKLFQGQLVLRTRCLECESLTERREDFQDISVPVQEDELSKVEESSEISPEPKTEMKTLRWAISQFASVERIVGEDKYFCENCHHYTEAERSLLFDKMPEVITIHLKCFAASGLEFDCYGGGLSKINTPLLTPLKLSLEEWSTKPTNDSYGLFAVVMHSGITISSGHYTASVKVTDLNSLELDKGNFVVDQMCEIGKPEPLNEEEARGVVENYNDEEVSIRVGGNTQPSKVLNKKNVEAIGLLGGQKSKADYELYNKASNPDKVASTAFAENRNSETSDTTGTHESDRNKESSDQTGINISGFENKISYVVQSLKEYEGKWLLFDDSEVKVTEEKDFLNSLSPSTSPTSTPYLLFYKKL

SMILES	Potency
O=[N+]([O-])c1ccc(N(CC2CO2)S(=O)(=O)c2ccccc2)cc1 (stereo not drawn)	inactive
COc1cc(OC)cc(C(=O)N2CC(=O)Nc3ccc(Cl)cc3C2c2ccccc2)c1 (stereo not drawn)	inactive
CCc1ccccc1NC(=O)c1ccc2nc(C(C)C)oc2c1	inconclusive: 141 µM [inhibitor, partial curve, poor fit]
Cc1ccc(N(CC(=O)Nc2ccc(Br)cc2)S(=O)(=O)c2cccs2)cc1	inconclusive: 5.62 µM [inhibitor, partial curve]
C[C@@H]1CN([C@@H](C)CO)C(=O)CCCn2nncc2CO[C@H]1CN(C)Cc1ccccc1C(F)(F)F	inconclusive: 0.251 µM [inhibitor, full curve, poor fit]
COc1cc(/C=C/c2cc(C(=O)O)c3ccccc3n2)cc(OC)c1O	inconclusive: 44.7 µM [inhibitor, partial curve, poor fit]
CCc1cnc2c(c1SCC(=O)c1ccc(Cl)cc1)c(=O)n(C)c(=O)n2C	inconclusive: 5.01 µM [inhibitor, full curve, poor fit]
COc1ccc(Cn2c(=O)c3cccnc3n(CC(=O)Nc3c(C)cc(C)cc3C)c2=O)cc1	inconclusive: 44.7 µM [inhibitor, partial curve, poor fit]
CC(=O)c1ccc(N2CCN(C(=O)CCCCn3c(=O)[nH]c4ccsc4c3=O)CC2)cc1	inconclusive: 0.708 µM [inhibitor, full curve]
OC(COCc1ccc(Cl)cc1)CN1CCN(CC(O)COCc2ccc(Cl)cc2)CC1 (stereo not drawn)	inactive
CCOc1ccc(CNS(=O)(=O)c2cc3c(cc2C)NC(=O)CO3)cc1	inconclusive: 1.26 µM [inhibitor, full curve, poor fit]
Cc1c(C(=O)NCCSCc2ccc(F)cc2)cnn1-c1ccc(Cl)cc1	inconclusive: 44.7 µM [inhibitor, partial curve, poor fit]
NC(=O)CC(NC(=O)Cc1cccc2ccccc12)c1ccc(NCCN2CCCC2)c([N+](=O)[O-])c1 (stereo not drawn)	inconclusive: 15.8 µM [inhibitor, partial curve, poor fit]
CCCSc1ccc([C@@H]2[C@H]3C(=O)N(CC)C(=O)[C@H]3[C@]3(C(=O)OC)CCCCN23)cc1	inconclusive: 39.8 µM [inhibitor, partial curve, poor fit]
COc1ccc2cc3cc(C(=O)NCc4ccccc4OC)oc3nc2c1	inconclusive: 17.8 µM [inhibitor, partial curve, poor fit]
CCCn1c(SCC(=O)N(C)C2CCCCC2)n[nH]c1=O	inconclusive: 0.251 µM [inhibitor, full curve, poor fit]
CN(C)c1ccc(C2C=C(c3ccc(Cl)cc3OC(F)F)Nc3ncnn32)cc1 (stereo not drawn)	inconclusive: 35.5 µM [inhibitor, partial curve, poor fit]
Brc1cccc(-c2cnn3c(-c4ccccc4)cc(-c4ccccc4)nc23)c1	inconclusive: 28.2 µM [inhibitor, single point]
CN1CCN(CC(O)COC(c2ccccc2)c2ccccc2)CC1 (stereo not drawn)	inconclusive: 35.5 µM [inhibitor, single point]
CN(C)C(/C=C/Nc1ccc([N+](=O)[O-])cc1)=C(C#N)C#N	inconclusive: 20 µM [inhibitor, partial curve, poor fit]
Clc1cccc(N/N=C(\Cc2nc3ccccc3[nH]2)c2ccccc2)c1	inconclusive: 44.7 µM [inhibitor, partial curve, poor fit]

SMILES	Potency
CSCC[C@H](NC(=O)c1cc2c([nH]c3ccccc32)c(-c2ccccc2)n1)C(=O)O	inconclusive: 50.1 µM [inhibitor, partial curve]
O=C(Nc1nnc2n1CCS2)c1ccc(F)cc1F	inconclusive: 11.2 µM [inhibitor, partial curve, poor fit]
CC1=C(C)CS(=O)N(S(=O)(=O)c2ccccc2)C1 (stereo not drawn)	inactive
O=C1C=C(c2ccc(Cl)c(C(F)(F)F)c2)C[C@@H](c2ccc(F)cc2)C1	inconclusive: 1.58 µM [inhibitor, full curve, poor fit]
Cc1cccc(N2CCN(S(=O)(=O)c3csc(C(N)=O)c3)CC2)c1C	inactive
O=C(C1CCN(S(=O)(=O)c2cccc3nsnc23)CC1)N1CCc2ccccc2C1	inactive
O=C(O)C1CC(=O)N(c2ccc3c(c2)OCCO3)C1 (stereo not drawn)	inactive
Cc1cc(C(=O)N/N=C/c2ccc3c(c2)OCO3)c(C)n1-c1ccc(F)cc1	inactive
CC(NC(=O)C1CCC(C(C)(C)C)CC1)C(c1ccccc1)N1CCOCC1 (stereo not drawn)	inconclusive: 50.1 µM [inhibitor, partial curve, poor fit]
CN(Cc1ccco1)C(=O)c1cccc(S(=O)(=O)N2CCN(Cc3ccccc3)CC2)c1	inconclusive: 0.251 µM [inhibitor, full curve, poor fit]
COC1=C(N2CCOCC2)C(=O)c2ccccc2C1=O	inconclusive: 31.6 µM [inhibitor, partial curve]
N#Cc1cccc(N=Cc2c(O)ccc3ccccc23)c1	inactive
NC(N)=N/N=C/c1ccc(OCc2ccccc2)c(OCc2ccccc2)c1	inconclusive: 7.94 µM [inhibitor, partial curve, poor fit]
COc1ccc(C2=Nc3ccc(F)cc3NC(c3cccc(C(F)(F)F)c3)=N2)cc1	inconclusive: 5.62 µM [inhibitor, partial curve, poor fit]
O=C(CNc1cc(S(=O)(=O)N2CCOCC2)ccc1N1CCCC1)Nc1ccc(Cl)cc1	inactive
Oc1cccc(/C=N/Nc2cccc3cccnc23)c1	inconclusive: 7.94 µM [inhibitor, partial curve, poor fit]
COC(=O)[C@H](C)NC(=O)Nc1cc(Cl)ccc1C	inconclusive: 4.47 µM [inhibitor, partial curve]
Cc1ccc(Cl)cc1N1CCN(C(=O)Cc2c(C(=O)O)[nH]c3ccccc23)CC1	inconclusive: 17.8 µM [inhibitor, partial curve]
CCN(CC)C(=O)CC(c1ccc2c(c1)OCO2)c1c(O)cc(OC)cc1OC (stereo not drawn)	inconclusive: 5.01 µM [inhibitor, partial curve]
COc1ccc(Cn2c(C(=O)O)c(CNCc3ccco3)c3ccc(OC)cc32)cc1	inactive
COc1ccc(-c2cn3cccnc3n2)cc1NC(=O)c1ccc(Br)o1	inconclusive: 17.8 µM [inhibitor, partial curve]

Sorted by formula weight (high to low): part of the list above
SMILES	Potency
CN(Cc1ccco1)C(=O)c1cccc(S(=O)(=O)N2CCN(Cc3ccccc3)CC2)c1	inconclusive: 0.251 µM [inhibitor, full curve, poor fit]
O=C(C1CCN(S(=O)(=O)c2cccc3nsnc23)CC1)N1CCc2ccccc2C1	inactive
NC(N)=N/N=C/c1ccc(OCc2ccccc2)c(OCc2ccccc2)c1	inconclusive: 7.94 µM [inhibitor, partial curve, poor fit]
COC(=O)[C@H](C)NC(=O)Nc1cc(Cl)ccc1C	inconclusive: 4.47 µM [inhibitor, partial curve]
O=C(O)C1CC(=O)N(c2ccc3c(c2)OCCO3)C1 (stereo not drawn)	inactive

(list continues)

SMILES	Potency
CCOC(=O)c1ccc(NC(=O)CSc2nnc3c4ccccc4n(CC)c3n2)cc1	inconclusive: 8.91 µM [inhibitor, partial curve, poor fit]
COc1ccccc1NC(=O)COC(=O)C1CC2CCCC(C1)C2=O (stereo not drawn)	inconclusive: 25.1 µM [inhibitor, partial curve]
O=C(CSc1cnc2ccccc2n1)c1ccc(F)cc1	inconclusive: 15.8 µM [inhibitor, partial curve, poor fit]
Cc1ccc(CCNC(=O)CCCn2c(=O)c3ccccc3n(Cc3ccccc3C)c2=O)cc1	inconclusive: 0.794 µM [inhibitor, full curve]
O=C(NNc1ccc(F)cc1F)C1CCC1	inconclusive: 7.08 µM [inhibitor, partial curve, poor fit]
Nc1c2c(=O)[nH]c(O)cc2nn1-c1ccccc1	inconclusive: 35.5 µM [inhibitor, partial curve, poor fit]
C=CCN1CCN(C(=O)CCc2ccccc2)CC1	inconclusive: 12.6 µM [inhibitor, partial curve, poor fit]
CCCS(=O)(=O)c1nc(S(=O)(=O)c2ccc(C)cc2)c(NCc2ccccc2Cl)s1	inconclusive: 10 µM [inhibitor, full curve]
COc1cc(S(=O)(=O)N2CCN(c3ccccc3F)CC2)ccc1Cl	inactive
COc1ccccc1CNC(=O)CCCN1C(=O)CSc2c1c(C)nn2-c1ccccc1	inactive
NC(=S)NN=Cc1nccc2c(N)cccc12	inconclusive: 50.1 µM [inhibitor, partial curve, poor fit]
CCOc1ccc(NC(=O)Nc2cccnc2)cc1	inconclusive: 35.5 µM [inhibitor, partial curve, poor fit]
O=C(Cc1cccs1)N1CCN=C1SCc1cccc(F)c1	inactive
COc1ccc(-c2nc(NC(=O)c3[nH]c(C)c(C(C)=O)c3C)sc2C)cc1	inconclusive: 15.8 µM [inhibitor, partial curve]
CS(=O)(=O)c1ccccc1C(=O)Nc1cccc2ncccc12	inconclusive: 25.1 µM [inhibitor, single point]
CC1(C)CC(=O)c2cc(C#N)c(=O)n(-c3ccc(Cl)cc3)c2C1	inconclusive: 17.8 µM [inhibitor, partial curve, poor fit]
Cc1cccc(-c2nnc(SCC(=O)N3CCCC3)o2)c1	inconclusive: 39.8 µM [inhibitor, single point]
O=C(CSc1n[nH]c(=O)[nH]c1=O)Nc1ccc2c(c1)C(=O)c1ccccc1C2=O	inconclusive: 39.8 µM [inhibitor, partial curve]
Cn1c(N/N=C/c2cc3ccccc3nc2Cl)nc2ccccc21	inconclusive: 39.8 µM [inhibitor, partial curve, poor fit]
CC(=O)c1ccc(N2CCN(C(=O)Cc3ccccc3)CC2)c(F)c1	inactive
C[C@@H]1CC=C[C@@H]2[C@H]1C(=O)N(Cc1ccccc1)[C@H]2c1cccc(C#Cc2ccccc2)c1	inconclusive: 14.1 µM [inhibitor, partial curve, poor fit]

From PubChem BioAssay AID743255 (National Center for Advancing Translational Sciences (NCATS), 2014)
